Record: PubChem BioAssay AID1259308 (NCATS, 2017)
Here is an unselected part of about 59,000 deposited reagents. About 1,510 of all reagents (2.6%) were called active. 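Calls use total luciferase alone and ignore viability, so some active siRNAs may act by altering cell number.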 Reagents against one gene are numbered here. Not all columns of the deposit are shown.

- Aim: 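Candidate targets for better recombinant protein yield in mammalian cells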 (primary screen)
- System: human HEK293 embryonic kidney cells stably expressing firefly luciferase (HEK-CMV-Luc2-Hygro)
- Reagent: single siRNA against human genes, 0.8 pmol siRNA per well
- Time to read-out: 72 h
- Measured: 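Luciferase light (ONE-Glo) measured on one replicate plate set and viability (CellTiter-Glo) on the other, scaled to a negative control siRNA, with robust z-scores and luciferase per cell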
- Direction: total luciferase, z-score and total luciferase, % of control: higher = more reporter protein produced
- Rule for the call: 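An siRNA counts as active if its total luciferase robust z-score exceeds 3; genes with two or more such siRNAs out of three were retested with fresh siRNAs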
- Calls: active = raised luciferase; inactive = no rise

For TNS2 #1, how do the results read?
total luciferase, z-score: -0.0814; total luciferase, % of control: 80.3; call: inactive

With TNS2 #2, what does the deposit list?
total luciferase, z-score: 1.78; total luciferase, % of control: 117; call: inactive

How did the screen score TNS2 #3?
total luciferase, z-score: 0.567; total luciferase, % of control: 93.2; call: inactive

With ZBTB20 #1, how do the results read?
total luciferase, z-score: -0.595; total luciferase, % of control: 70; call: inactive

With ZBTB20 #2, what does the deposit list?
total luciferase, z-score: -0.645; total luciferase, % of control: 69; call: inactive

For ZBTB20 #3, what was measured?
total luciferase, z-score: 1.98; total luciferase, % of control: 121; call: inactive

Which result is listed for PPP1R1A #1?
total luciferase, z-score: 0.97; total luciferase, % of control: 101; call: inactive

What is on record for PPP1R1A #2?
total luciferase, z-score: 0.155; total luciferase, % of control: 85; call: inactive

Which result is listed for PPP1R1A #3?
total luciferase, z-score: 1.84; total luciferase, % of control: 119; call: inactive

With FAM218A #1, how do the results read?
total luciferase, z-score: 0.794; total luciferase, % of control: 97.7; call: inactive

For FAM218A #2, what was measured?
total luciferase, z-score: 1.57; total luciferase, % of control: 113; call: inactive

For FAM218A #3, how do the results read?
total luciferase, z-score: 0.202; total luciferase, % of control: 85.9; call: inactive

For ZNFX1 #1, what does the deposit list?
total luciferase, z-score: 2.08; total luciferase, % of control: 123; call: inactive

Which result is listed for ZNFX1 #2?
total luciferase, z-score: 1.23; total luciferase, % of control: 106; call: inactive

With ZNFX1 #3, how do the results read?
total luciferase, z-score: -0.0592; total luciferase, % of control: 80.7; call: inactive

How did the screen score ZNF257 #1?
total luciferase, z-score: -0.505; total luciferase, % of control: 71.8; call: inactive

For ZNF257 #2, what was measured?
total luciferase, z-score: -1.68; total luciferase, % of control: 48.5; call: inactive

What did the screen give for ZNF257 #3?
total luciferase, z-score: -0.469; total luciferase, % of control: 72.6; call: inactive

For DCTN6 #1, how do the results read?
total luciferase, z-score: -0.0971; total luciferase, % of control: 80; call: inactive

With DCTN6 #2, how do the results read?
total luciferase, z-score: -0.998; total luciferase, % of control: 62; call: inactive

Which result is listed for DCTN6 #3?
total luciferase, z-score: -1.34; total luciferase, % of control: 55.2; call: inactive

Laid out differently: entries from further up
gene knocked down | reagent no. | total luciferase, z-score | total luciferase, % of control | call
ZNF257 | 2 | -1.68 | 48.5 | inactive
ZNF257 | 3 | -0.469 | 72.6 | inactive
DCTN6 | 1 | -0.0971 | 80 | inactive
DCTN6 | 2 | -0.998 | 62 | inactive

The results go on.
For SMIM15 #1, how do the results read?
total luciferase, z-score: 0.762; total luciferase, % of control: 97; call: inactive

Which result is listed for SMIM15 #2?
total luciferase, z-score: 0.313; total luciferase, % of control: 88.1; call: inactive

What did the screen give for SMIM15 #3?
total luciferase, z-score: 0.451; total luciferase, % of control: 90.9; call: inactive

With GNL2 #1, how do the results read?
total luciferase, z-score: -2.04; total luciferase, % of control: 41.4; call: inactive

With GNL2 #2, how do the results read?
total luciferase, z-score: -1.3; total luciferase, % of control: 56; call: inactive

With GNL2 #3, what does the deposit list?
total luciferase, z-score: -1.28; total luciferase, % of control: 56.4; call: inactive

What did the screen give for P4HA1 #1?
total luciferase, z-score: -0.717; total luciferase, % of control: 67.6; call: inactive

What is on record for P4HA1 #2?
total luciferase, z-score: 0.863; total luciferase, % of control: 99; call: inactive

Which result is listed for P4HA1 #3?
total luciferase, z-score: -1.03; total luciferase, % of control: 61.5; call: inactive

For ANKRD7 #1, what was measured?
total luciferase, z-score: 0.11; total luciferase, % of control: 84.1; call: inactive

How did the screen score ANKRD7 #2?
total luciferase, z-score: 0.89; total luciferase, % of control: 99.6; call: inactive

For ANKRD7 #3, how do the results read?
total luciferase, z-score: 0.785; total luciferase, % of control: 97.5; call: inactive
